Source: the supplement of paper PMC8256030
Several values for one entry are separate records, joined by “and”; a condition that tells them apart may be missing. Identical values can stand only once. The list shows a part of the results. Single values are uncertain here, since repeats match poorly.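 HEK293T cells were given each compound shortly before transfection with a reporter in which red mCherry is followed by the SARS-CoV-2 frameshift element and then GFP in the −1 frame, so GFP appears only after frameshifting.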

Tests used:
[1] = tested on: SARS-CoV-2 -1 PRF reporter mCherry-FSE-GFP(-1); assay: mCherry (red) intensity as percent of control; higher = higher upstream reporter expression; details: 10 µM; 24 h; HEK293T
[2] = tested on: SARS-CoV-2 -1 PRF reporter mCherry-FSE-GFP(-1); assay: percent effect, decrease of GFP/mCherry ratio (-1 PRF reporter) relative to controls; higher = stronger frameshift inhibition; details: 10 µM; 24 h; HEK293T

## Oc1c(Cl)cc(Cl)c(Cl)c1Cc1c(O)c(Cl)cc(Cl)c1Cl [hexachlorophene]
[1]
  mCherry: 27.2%
[2]
  percent effect: -10.1%

## NC(=O)C1(N2CCCCC2)CCN(CCCC(=O)c2ccc(F)cc2)CC1 [pipamperone]
[1]
  mCherry: 136%
[2]
  percent effect: 5.2%

## Cc1nc2c([nH]1)c(=O)n(C)c(=O)n2Cc1ccco1 [furafylline]
[1]
  mCherry: 95.5%
[2]
  percent effect: 5.21%

## CC(C)(C)c1ccc(C(O)CCCN2CCC(C(O)(c3ccccc3)c3ccccc3)CC2)cc1 (stereo unspecified) [terfenadine]
[1]
  mCherry: 111% and 98.3%
[2]
  percent effect: 0.0353% and -1.11%

## CN1CCCCC1CCN1c2ccccc2Sc2ccc([S+](C)[O-])cc21 (stereo unspecified) [mesoridazine]
[1]
  mCherry: 87.8%
[2]
  percent effect: 0.904%

## COc1ccc2nc3cc(Cl)ccc3c(Nc3cc(CN4CCCC4)c(O)c(CN4CCCC4)c3)c2n1 [pyronaridine]
[1]
  mCherry: 20.8%
[2]
  percent effect: 10.8%

## Clc1cccc(Cl)c1NC1=NCCN1
[1]
  mCherry: 93.1%
[2]
  percent effect: -1.02%

## C[N+]1(C)CCC(OC(=O)C(O)(c2ccccc2)C2CCCC2)C1 (stereo unspecified) [glycopyrronium bromide]
[1]
  mCherry: 92.9%
[2]
  percent effect: -2.72%

## CC(C)(C)NC[C@H](O)COc1nsnc1N1CCOCC1
[1]
  mCherry: 100%
[2]
  percent effect: -3.84%

## Cc1cccc(C)c1NC(=O)c1cc(S(N)(=O)=O)c(Cl)cc1O [xipamide]
[1]
  mCherry: 108%
[2]
  percent effect: -11.5%

## CC[C@H]1OC(=O)[C@H](C)[C@@H](O[C@H]2C[C@@](C)(OC)[C@@H](O)[C@H](C)O2)[C@H](C)[C@@H](O[C@@H]2O[C@H](C)C[C@H](N(C)C)[C@H]2O)[C@](C)(O)C[C@@H](C)CN(C)[C@H](C)[C@@H](O)[C@]1(C)O [Azithromycin]
[1]
  mCherry: 55.8%
[2]
  percent effect: -1.63%

## CSCC[C@H](NC(=O)[C@H](Cc1c[nH]c2ccccc12)NC(=O)CCNC(=O)OC(C)(C)C)C(=O)N[C@@H](CC(=O)O)C(=O)N[C@@H](Cc1ccccc1)C(N)=O [pentagastrin]
[1]
  mCherry: 80.9%
[2]
  percent effect: -9.33%

## Cc1ncc(CO)c(CO)c1O [pyridoxine]
[1]
  mCherry: 110%
[2]
  percent effect: -2.67%

## NNC(=O)c1ccncc1 [isoniazid]
[1]
  mCherry: 90.1% and 99.8%
[2]
  percent effect: -3.42% and -9.43%

## CNCC[C@H](Oc1cccc2ccccc12)c1cccs1
[1]
  mCherry: 147%
[2]
  percent effect: 2.74%

## COc1cc2c3cc1Oc1cc(ccc1O)C[C@@H]1c4c(cc(OC)c(O)c4Oc4ccc(cc4)C[C@@H]3N(C)CC2)CC[N+]1(C)C
[1]
  mCherry: 92.1%
[2]
  percent effect: 1.69%

## COc1ccc(C(=O)NCc2cccnc2)cc1C(=O)NCc1cccnc1 [Picotamide]
[1]
  mCherry: 82.2%
[2]
  percent effect: -4.35%

## CC(C)(Oc1ccc(CCNC(=O)c2ccc(Cl)cc2)cc1)C(=O)O [bezafibrate]
[1]
  mCherry: 126% and 120%
[2]
  percent effect: 0.792% and -1.56%

## CC1CNc2c(cccc2S(=O)(=O)N[C@@H](CCCNC(=N)N)C(=O)N2CC[C@@H](C)C[C@@H]2C(=O)O)C1 (stereo partly specified) [Argatroban]
[1]
  mCherry: 102% and 103%
[2]
  percent effect: -2.26% and -1.45%

## CC[C@H](C)C[C@H](C)CCCCCCCCC(=O)N[C@H]1C[C@@H](O)[C@@H](NCCN)NC(=O)[C@@H]2[C@@H](O)CCN2C(=O)[C@H]([C@H](O)CCN)NC(=O)[C@H]([C@H](O)[C@@H](O)c2ccc(O)cc2)NC(=O)[C@@H]2C[C@@H](O)CN2C(=O)[C@H]([C@@H](C)O)NC1=O [Cancidas]
[1]
  mCherry: 109%
[2]
  percent effect: -1.36%

## Cc1c(C(=O)Nc2ccc(N3C[C@@H](C)O[C@@H](C)C3)nc2)cccc1-c1ccc(OC(F)(F)F)cc1 [Sonidegib]
[1]
  mCherry: 106%
[2]
  percent effect: 0.259%

## CS(=O)(=O)c1ccc([C@@H](O)[C@@H](CF)NC(=O)C(Cl)Cl)cc1 [florfenicol]
[1]
  mCherry: 88.7%
[2]
  percent effect: -1.24%

## COc1cc(NCCCCCNC(C)C)c2ncccc2c1 [pentaquine]
[1]
  mCherry: 80.9%
[2]
  percent effect: -0.134%

## COc1ccc2nc(NC(=O)Nc3ccccc3)sc2c1 [frentizole]
[1]
  mCherry: 78%
[2]
  percent effect: -10.1%

## O=C1NCC2(CCN(CCc3ccccc3)CC2)O1
[1]
  mCherry: 86.7%
[2]
  percent effect: -1.86%

## Cc1sc[n+](CC(=O)c2ccccc2)c1C [alagebrium chloride]
[1]
  mCherry: 103%
[2]
  percent effect: -1.28%

## COc1ccc(CN(CCN(C)C)c2ncccn2)cc1 [thonzylamine]
[1]
  mCherry: 108%
[2]
  percent effect: 1.49%

## O=C(O)C[C@H](O)C[C@H](O)/C=C/c1c(C2CC2)nc2ccccc2c1-c1ccc(F)cc1
[1]
  mCherry: 152%
[2]
  percent effect: -0.39%

## CN1C(C(=O)Nc2ccccn2)=C(O)c2sc(Cl)cc2S1(=O)=O [lornoxicam]
[1]
  mCherry: 99.9%
[2]
  percent effect: -2.8%

## CC1(C)S[C@@H]2[C@H](NC(=O)[C@H](C(=O)O)c3ccsc3)C(=O)N2[C@H]1C(=O)O [ticarcillin]
[1]
  mCherry: 86%
[2]
  percent effect: -1.54%

## CO[C@H]1C[C@@H]2CC[C@@H](C)[C@@](O)(O2)C(=O)C(=O)N2CCCC[C@H]2C(=O)O[C@H]([C@H](C)C[C@@H]2CC[C@@H](O)[C@H](OC)C2)CC(=O)[C@H](C)/C=C(\C)[C@@H](O)[C@@H](OC)C(=O)[C@H](C)C[C@H](C)/C=C/C=C/C=C/1C [Rapamune]
[1]
  mCherry: 103%
[2]
  percent effect: -4.36%

## CN[C@H](CC(C)C)C(=O)N[C@H]1C(=O)N[C@@H](CC(N)=O)C(=O)N[C@H]2C(=O)N[C@H]3C(=O)N[C@H](C(=O)N[C@H](C(=O)O)c4cc(O)cc(O)c4-c4cc3ccc4O)[C@H](O)c3ccc(c(Cl)c3)Oc3cc2cc(c3O[C@@H]2O[C@H](CO)[C@@H](O)[C@H](O)[C@H]2O[C@H]2C[C@](C)(N)[C@H](O)[C@H](C)O2)Oc2ccc(cc2Cl)[C@H]1O [Vancocin]
[1]
  mCherry: 106%
[2]
  percent effect: -5.58%

## COc1ccc(CC(C)NCC(O)c2ccc(O)c(NC=O)c2)cc1 (stereo unspecified) [formoterol]
[1]
  mCherry: 91.7% and 79.7%
[2]
  percent effect: -4.87% and -1.64%

## C#CC(C)(CC)OC(=O)c1ccccc1C(=O)O (stereo unspecified) [ftalofyne]
[1]
  mCherry: 84.4%
[2]
  percent effect: -6.96%

## O=C(O)c1cccc(/C=C2/C[C@@H]3[C@@H](/C=C/[C@@H](O)C4CCCCC4)[C@H](O)C[C@@H]3O2)c1 [taprostene]
[1]
  mCherry: 75.2%
[2]
  percent effect: -3.72%

## CCCCCCCC/C=C\CCCCCCCC(=O)O.NCCO
[1]
  mCherry: 107%
[2]
  percent effect: -2.67%

## C=CCSCC1Nc2cc(Cl)c(S(N)(=O)=O)cc2S(=O)(=O)N1 (stereo unspecified) [altizide]
[1]
  mCherry: 117%
[2]
  percent effect: -5.96%

## CCCC(C)(COC(N)=O)COC(=O)NC(C)C (stereo unspecified) [carisoprodol]
[1]
  mCherry: 95.6% and 90%
[2]
  percent effect: 1.45% and -1.95%

## CCC(=O)O[C@]1(C(=O)COC(C)=O)CC[C@H]2[C@@H]3C[C@H](C)C4=CC(=O)C=C[C@]4(C)[C@H]3[C@@H](O)C[C@@]21C [methylprednisolone aceponate]
[1]
  mCherry: 103%
[2]
  percent effect: -3.07%

## CN(C)CCN1C(=O)c2ccccc2N(C)c2ccccc21 [dibenzepin]
[1]
  mCherry: 71.6%
[2]
  percent effect: -0.705%

## CO/N=C(\C(=O)N[C@@H]1C(=O)N2C(C(=O)O)=C(CSc3nc(=O)c(O)nn3C)CS[C@H]12)c1csc(N)n1
[1]
  mCherry: 91.9%
[2]
  percent effect: -3.64%

## O=P(O)(O)C(O)(Cn1ccnc1)P(=O)(O)O [zoledronic acid]
[1]
  mCherry: 101%
[2]
  percent effect: -9.76%

## CC(N)C12CC3CC(CC(C3)C1)C2 (stereo unspecified) [rimantadine]
[1]
  mCherry: 110%
[2]
  percent effect: -3.47%

## CCCNC(C)C(=O)Nc1ccccc1C (stereo unspecified) [prilocaine]
[1]
  mCherry: 104%
[2]
  percent effect: -3.68%

## CC(C)(C)CC(=O)OCC(=O)[C@@]12OC(C)(C)O[C@@H]1C[C@H]1[C@@H]3CCC4=CC(=O)C=C[C@]4(C)[C@@]3(F)[C@@H](O)C[C@@]12C [triamcinolone hexacetonide]
[1]
  mCherry: 88.7%
[2]
  percent effect: 0.511%

## CS(=O)(=O)c1ccc([C@@H](O)[C@@H](CF)NC(=O)C(Cl)Cl)cc1
[1]
  mCherry: 94.1%
[2]
  percent effect: -0.497%

## C[C@H]1C[C@H]2[C@@H]3CCC4=CC(=O)C=C[C@]4(C)[C@@]3(Cl)[C@@H](O)C[C@]2(C)[C@@]1(O)C(=O)CO [beclometasone]
[1]
  mCherry: 105%
[2]
  percent effect: -1.41%

## CC(=O)[C@@]1(C)CC[C@H]2[C@@H]3C=C(C)C4=CC(=O)CC[C@]4(C)[C@H]3CC[C@@]21C [medrogestone]
[1]
  mCherry: 49.9%
[2]
  percent effect: -20.7%

## CN1C2CCCC1CC(NC(=O)c1nn(C)c3ccccc13)C2 (stereo unspecified) [Granisetron]
[1]
  mCherry: 96.9%
[2]
  percent effect: -0.612%

## O=C1OC(c2ccc(O)cc2)(c2ccc(O)cc2)c2ccccc21 [phenolphthalein]
[1]
  mCherry: 96.7%
[2]
  percent effect: -4.39%

## CCCCC(=O)O[C@H]1CC[C@H]2[C@@H]3CCc4cc(O)ccc4[C@H]3CC[C@]12C [estradiol valerate]
[1]
  mCherry: 141%
[2]
  percent effect: -2.41%

## CCC=CCC=CCC=CCC=CCC=CCC=CCCC(=O)O
[1]
  mCherry: 59.7%
[2]
  percent effect: -6.58%

## CCCn1c(=O)[nH]c(=O)c2nc[nH]c21 [enprofylline]
[1]
  mCherry: 78.9%
[2]
  percent effect: -5.4%

## OC[C@H]1O[C@@H](O[C@@H]2[C@@H](CO)OC(O)(CO)[C@H]2O)[C@H](O)[C@@H](O)[C@H]1O (mixture of isomers) [lactulose]
[1]
  mCherry: 118%
[2]
  percent effect: -0.623%

## O[C@@H]1CO[C@H]2[C@@H]1OC[C@@H]2O [isosorbide]
[1]
  mCherry: 117%
[2]
  percent effect: 1.14%

## CCC(c1ccccc1)c1c(O)c2ccccc2oc1=O (stereo unspecified) [Phenprocoumon]
[1]
  mCherry: 104%
[2]
  percent effect: -6.96%

## C=CC[C@@H]1/C=C(\C)C[C@H](C)C[C@H](OC)[C@H]2O[C@@](O)(C(=O)C(=O)N3CCCC[C@H]3C(=O)O[C@H](/C(C)=C/[C@@H]3CC[C@@H](O)[C@H](OC)C3)[C@H](C)[C@@H](O)CC1=O)[C@H](C)C[C@@H]2OC
[1]
  mCherry: 133%
[2]
  percent effect: 0.827%

## CCCCC(CC)COC(=O)c1ccccc1O (stereo unspecified)
[1]
  mCherry: 106%
[2]
  percent effect: -5.27%

## OC1(c2ccc(Cl)c(C(F)(F)F)c2)CCN(CCCC(c2ccc(F)cc2)c2ccc(F)cc2)CC1 [penfluridol]
[1]
  mCherry: 129%
[2]
  percent effect: -4.03%

## C[C@]12CC[C@@H]3c4ccc(OS(=O)(=O)O)cc4CC[C@H]3[C@@H]1CCC2=O
[1]
  mCherry: 108%
[2]
  percent effect: -0.197%

## C=CCN1CCCC1CNC(=O)c1cc(S(N)(=O)=O)cc(OC)c1OC (stereo unspecified) [veralipride]
[1]
  mCherry: 85.1%
[2]
  percent effect: -2.52%

## Nc1nc(F)nc2c1ncn2[C@@H]1O[C@H](CO)[C@@H](O)[C@@H]1O [fludarabine]
[1]
  mCherry: 108%
[2]
  percent effect: -1.51%

## NC(=O)N1c2ccccc2C=Cc2ccccc21 [carbamazepine]
[1]
  mCherry: 122% and 144%
[2]
  percent effect: -4.7% and 2.72%
